In this assay the test system is MCF7. Kind of assay: Proliferation Assay (crystal violet). Type of assay: cell-based. To be noted: Homo sapiens, MCF-7 cells, comparison with known reference compounds. As to the method: Cultivated human tumor cells (as indicated) were flattened out at a density of 5000 cells/measuring point in a 96-well multititer plate in 200 μl of the corresponding growth medium. After 24 hours, the cells of one plate (zero-point plate) were colored with crystal violet (see below), while the medium of the other plates was replaced by fresh culture medium (200 μl), to which the test substances were added in various concentrations (0 μm, as well as in the range of 0.01-30 μm; the final concentration of the solvent dimethyl sulfoxide was 0.5%). The cells were incubated for 4 days in the presence of test substances. The cell proliferation was determined by coloring the cells with crystal violet: the cells were fixed by adding 20 μl/measuring point of a 11% glutaric aldehyde solution for 15 minutes at room temperature. After three washing cycles of the fixed cells with water, the plates were dried at room temperature. The cells were colored by adding 100 μl/measuring point of a 0.1% crystal violet solution (pH was set at 3 by adding acetic acid). […] The extinction was determined by photometry at a wavelength of 595 nm. The change of cell growth, in percent, was calculated by standardization of the measured values to the extinction values of the zero-point plate (=0%) and the extinction of the untreated (0 μm) cells (=100%).

Take `CC[C@@H](CO)Nc1nc(NCc2ccccc2)c2ncn(C(C)C)c2n1` [Roscovitine, reference compound]: half-maximal inhibition (IC50) was put at 8 µM.
